# Results are given in words; binding and its absence hold for the method and conditions named. In cells and extracts the contact can be indirect. Some binding calls cover weakened binding; strength is not graded here.
# The chains behind the UniProt entries cited, without tags or fusion partners. Where a name states a change or a piece, a line headed by the entry shows the natural chain unless it says otherwise.
# UniProt Q99MQ3: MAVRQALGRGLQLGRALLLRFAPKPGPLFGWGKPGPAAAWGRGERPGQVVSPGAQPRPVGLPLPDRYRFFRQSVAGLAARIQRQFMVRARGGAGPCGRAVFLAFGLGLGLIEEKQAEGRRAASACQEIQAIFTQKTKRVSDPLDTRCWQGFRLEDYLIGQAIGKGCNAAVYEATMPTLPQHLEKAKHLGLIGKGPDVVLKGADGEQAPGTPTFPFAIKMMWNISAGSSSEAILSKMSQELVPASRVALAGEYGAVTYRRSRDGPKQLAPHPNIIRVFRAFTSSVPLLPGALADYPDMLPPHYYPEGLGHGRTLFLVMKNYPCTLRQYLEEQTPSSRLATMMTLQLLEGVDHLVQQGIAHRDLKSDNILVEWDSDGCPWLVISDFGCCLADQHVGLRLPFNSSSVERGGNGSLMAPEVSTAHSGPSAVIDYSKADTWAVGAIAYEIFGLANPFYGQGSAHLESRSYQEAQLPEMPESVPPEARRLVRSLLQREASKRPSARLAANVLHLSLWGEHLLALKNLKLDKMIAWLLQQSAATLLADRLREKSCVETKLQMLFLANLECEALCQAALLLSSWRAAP
# Biological target: PPAR-γ (UniProt P37238)
# Assay: co-IP; 200 μg protein lysate supernatant with 2 μg FKBP51 or PPAR-γ antibody, 24 h at 4 °C, then Dynabeads 2 h at 4 °C; Western blot for FKBP51, PPAR-γ and PINK1; normal rabbit IgG as negative control
substance,measurement,value
PTEN-induced putative kinase 1 (from UniProt Q99MQ3 78-580),binding,binds

# Reference: paper PMC10640650
